Measurements from doi:10.1101/2024.11.06.622243.
Results are given in words; binding and its absence hold for the method and conditions named. In cells and extracts the contact can be indirect. Some results given as binding are weak or reduced against the parent protein; the word gives no strength. For part of these data: Sequences can lack the tags named with a protein.

Chains of the proteins cited; added tags and fusions are not shown.
UniProt P41968: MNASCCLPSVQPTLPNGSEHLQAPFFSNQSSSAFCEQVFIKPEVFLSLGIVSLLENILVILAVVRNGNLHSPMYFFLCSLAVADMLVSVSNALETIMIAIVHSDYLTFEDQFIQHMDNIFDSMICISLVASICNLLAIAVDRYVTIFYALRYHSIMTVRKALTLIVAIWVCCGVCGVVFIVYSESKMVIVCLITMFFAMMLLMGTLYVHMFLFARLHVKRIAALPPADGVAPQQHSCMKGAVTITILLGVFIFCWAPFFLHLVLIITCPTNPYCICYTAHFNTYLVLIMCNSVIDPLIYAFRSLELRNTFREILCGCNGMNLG

B1: LgC-MRAP2 (MRAP2 with C-terminal LgBiT) (protein, UniProt Q96G30 1-205)
chain: MSAQRLISNRTSQQSASNSDYTWEYEYYEIGPVSFEGLKAHKYSIVIGFWVGLAVFVIFMFFVLTLLTKTGAPHQDNAESSEKRFRMNSFVSDFGRPLEPDKVFSRQGNEESRSLFHCYINEVERLDRAKACHQTTALDSDVQLQEAIRSSGQPEEELNRLMKFDIPNFVNTDQNYFGEDDLLISEPPIVLETKPLSQTSHKDLD
B2: SmC-MRAP2 (MRAP2 with C-terminal SmBiT) (protein, UniProt Q96G30 1-205)
chain: B1 chain
B3: untagged MRAP2 (protein, UniProt Q96G30 1-205)
chain: B1 chain

Key:
[1] = molecular target: SmC-MC3R (MC3R with C-terminal SmBiT) (human) (UniProt P41968); experiment: split reporter; NanoBiT in transiently transfected HEK293 cells, both proteins tagged at the C-terminus, 100 ng of each plasmid (saturation: 100 ng SmC-MC3R with increasing LgC-MRAP2), luminescence read at 37 °C, normalised to the negative control (MC3R-SmC and LgC-Empty)
[2] = molecular target: SmC-MC3R (MC3R with C-terminal SmBiT) (human) (UniProt P41968); experiment: split reporter; NanoBiT competition in HEK293 cells: NanoBiT constructs co-transfected with pcDNA or untagged MRAP2
[3] = molecular target: LgC-MC3R (MC3R with C-terminal LgBiT) (human) (UniProt P41968); experiment: split reporter; NanoBiT in transiently transfected HEK293 cells, both proteins tagged at the C-terminus, 100 ng of each plasmid (saturation: 100 ng SmC-MC3R with increasing LgC-MRAP2), luminescence read at 37 °C, normalised to the negative control (MC3R-SmC and LgC-Empty)
[4] = molecular target: LgC-MC3R (MC3R with C-terminal LgBiT) (human) (UniProt P41968); experiment: split reporter; NanoBiT competition in HEK293 cells: NanoBiT constructs co-transfected with pcDNA or untagged MRAP2

| Binder | binding [1] | binding [2] | binding [3] | binding [4] |
| --- | --- | --- | --- | --- |
| B1 | binds | binds |  |  |
| B2 |  |  | binds | binds |
| B3 |  | binds |  | binds |
